Data as given in PubChem BioAssay AID1508597 (Cure First, 2020)
Shown is a random part of the about 2,100 reagents, under one of the conditions tested. 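Calls flag viability under 80% in either arm, not effects specific to rucaparib; the reference for percent is not stated.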 A reagent listed more than once was tested more than once; the source does not tell the runs apart. Not stated in the record: the 100% reference.

Aim: 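Survival screen with siRNA in ovarian cancer cells derived from patients, with or without rucaparib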 (primary screen)
System: human ovarian carcinoma lines grown from tumours: OCI-P5x (papillary serous) and OCI-C5x (clear cell)
Knock-down reagent: siRNA pool against human genes, 1.25 pmol siRNA per well
Duration: 72 h or 96 h, depending on the cell culture
Conditions: rucaparib 20 µM (about IC30) or vehicle, present until read-out
Rucaparib or vehicle: Rucaparib
Cell line: OCI-C5x (clear cell)
Read-out: 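ATP luminescence measured at 72 or 96 h according to the culture, then normalised and expressed as percent viability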
Reading the numbers: viability, normalised: higher = more viable cells remaining
Hit rule: 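a well counts as a hit if its normalised viability is under 80 percent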
Meaning of the calls: active = viability under 80%; inactive = viability 80% or more

no.	Target gene	PubChem SID	technical replicate	viability, normalised (%)	outcome
1	SMARCD1	SID405527334	1	56.6	active
2	SMARCD1	SID405527334	2	48.5	active
3	SMARCD1	SID405527334	3	53.7	active
4	CKMT2	SID405528561	1	63.8	active
5	CKMT2	SID405528561	2	55.3	active
6	CKMT2	SID405528561	3	49.2	active
7	PTEN	SID405526404	1	56.2	active
8	PTEN	SID405526404	2	56.2	active
9	PTEN	SID405526404	3	57.9	active
10	TAF8	SID405526530	1	56.2	active
11	TAF8	SID405526530	2	39.1	active
12	TAF8	SID405526530	3	35.9	active
13	HERC2	SID405527637	1	62.4	active
14	HERC2	SID405527637	1	56.6	active
15	HERC2	SID405527637	2	62.4	active
16	HERC2	SID405527637	2	91.6	inactive
17	HERC2	SID405527637	3	44.8	active
18	HERC2	SID405527637	3	87.3	inactive
19	TP53BP1	SID405526577	1	56.3	active
20	TP53BP1	SID405526577	1	69.4	active
21	TP53BP1	SID405526577	2	88.5	inactive
22	TP53BP1	SID405526577	2	65.1	active
23	TP53BP1	SID405526577	3	65.5	active
24	TP53BP1	SID405526577	3	55.7	active
25	UBE2B	SID405526600	1	78.2	active
26	UBE2B	SID405526600	1	34.7	active
27	UBE2B	SID405526600	2	58.8	active
28	UBE2B	SID405526600	2	37.7	active
29	UBE2B	SID405526600	3	47.1	active
30	UBE2B	SID405526600	3	29.5	active
31	FMR1	SID405526788	1	55.6	active
32	FMR1	SID405526788	2	53.3	active
33	FMR1	SID405526788	3	55.9	active
34	TPK1	SID405528581	1	56.4	active
35	TPK1	SID405528581	2	72.3	active
36	TPK1	SID405528581	3	53	active
37	SUCLA2	SID405528389	1	47.1	active
38	SUCLA2	SID405528389	2	88.7	inactive
39	SUCLA2	SID405528389	3	53.3	active
40	SUPT6H	SID405526507	1	37.1	active
41	SUPT6H	SID405526507	2	27	active
42	SUPT6H	SID405526507	3	24.6	active
43	XRCC3	SID405528376	1	56.3	active
44	XRCC3	SID405528376	2	66.5	active
45	XRCC3	SID405528376	3	58.2	active
46	UCK2	SID405527807	1	55.4	active
47	UCK2	SID405527807	2	45.7	active
48	UCK2	SID405527807	3	39.3	active
49	EPHB1	SID405527495	1	50.6	active
50	EPHB1	SID405527495	2	80.7	inactive
51	EPHB1	SID405527495	3	61	active
52	PRP4K	SID405527375	1	70.9	active
53	PRP4K	SID405527375	2	53.8	active
54	PRP4K	SID405527375	3	58	active
55	BCR	SID405527531	1	47.5	active
56	BCR	SID405527531	2	61.9	active
57	BCR	SID405527531	3	66.3	active

Not a retest: entries from further up.
no.	Target gene	PubChem SID	technical replicate	viability, normalised (%)	outcome
13	HERC2	SID405527637	1	62.4	active
14	HERC2	SID405527637	1	56.6	active
15	HERC2	SID405527637	2	62.4	active
16	HERC2	SID405527637	2	91.6	inactive
17	HERC2	SID405527637	3	44.8	active
